{"source": "PubChem BioAssay AID1224830 (NIAID, 2016)", "aim": "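Regulators of TLR4 signalling towards TNF-alpha in macrophage-like cells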 (primary screen)", "cells": "human THP-1 monocytic leukaemia cells, TNF dual-luciferase reporter clone, PMA-differentiated to macrophage-like cells", "reagents": "siRNA pool against human genes, 50 nM", "duration": "LPS for 4 h, given about 3 days after siRNA transfection", "treatment": "bacterial LPS (TLR4 ligand), 10 ng/ml", "read-out": "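TNF firefly reporter luminescence divided by renilla, normalised to the plate median, then turned into a robust z-score for each replicate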", "scale": "TNF reporter robust z-score: higher = stronger TNF reporter response to LPS", "hit rule": "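a well is active when its z-score exceeds 2.8 or falls below -1.5; control wells carry no call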", "note": "The deposit covers about 18,000 reagents; below is a random part of them. Of all reagents, about 2,900 (16%) got an active call. 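Calls are made per well; low scores hint the gene aids the LPS response, high scores that it dampens it.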 Entries without a mark were called inactive. Repeated entries: four replicate wells of each siRNA pool. Reagent sequences are not shown."}
{"gene symbol":"PLA2G15","TNF reporter robust z-score":0.49}
{"gene symbol":"PLA2G15","TNF reporter robust z-score":0.81}
{"gene symbol":"PLA2G15","TNF reporter robust z-score":-0.53}
{"gene symbol":"PLA2G15","TNF reporter robust z-score":0.46}
{"gene symbol":"CYB5D2","TNF reporter robust z-score":0.35}
{"gene symbol":"CYB5D2","TNF reporter robust z-score":0.07}
{"gene symbol":"CYB5D2","TNF reporter robust z-score":0.86}
{"gene symbol":"IL6R","TNF reporter robust z-score":-1.4}
{"gene symbol":"IL6R","TNF reporter robust z-score":-1.33}
{"gene symbol":"IL6R","TNF reporter robust z-score":"-1.52 (active)"}
{"gene symbol":"IL6R","TNF reporter robust z-score":-1.15}
{"gene symbol":"GDF11","TNF reporter robust z-score":1.11}
{"gene symbol":"GDF11","TNF reporter robust z-score":1.24}
{"gene symbol":"GDF11","TNF reporter robust z-score":1.29}
{"gene symbol":"GDF11","TNF reporter robust z-score":2.64}
{"gene symbol":"SUMO2","TNF reporter robust z-score":-0.96}
{"gene symbol":"SUMO2","TNF reporter robust z-score":-1.12}
{"gene symbol":"SUMO2","TNF reporter robust z-score":-0.37}
{"gene symbol":"SUMO2","TNF reporter robust z-score":-0.72}
{"gene symbol":"ACOT11","TNF reporter robust z-score":0.29}
{"gene symbol":"ACOT11","TNF reporter robust z-score":0.32}
{"gene symbol":"ACOT11","TNF reporter robust z-score":-0.85}
{"gene symbol":"ACOT11","TNF reporter robust z-score":-0.59}
{"gene symbol":"FAM241B","TNF reporter robust z-score":-1.2}
{"gene symbol":"FAM241B","TNF reporter robust z-score":1.94}
{"gene symbol":"FAM241B","TNF reporter robust z-score":-0.79}
{"gene symbol":"FAM241B","TNF reporter robust z-score":-0.5}
{"gene symbol":"SMDT1","TNF reporter robust z-score":"-1.74 (active)"}
{"gene symbol":"SMDT1","TNF reporter robust z-score":-0.9}
{"gene symbol":"SMDT1","TNF reporter robust z-score":-1.39}
{"gene symbol":"SMDT1","TNF reporter robust z-score":-0.74}
{"gene symbol":"KDELR1","TNF reporter robust z-score":"-1.58 (active)"}
{"gene symbol":"KDELR1","TNF reporter robust z-score":-0.85}
{"gene symbol":"KDELR1","TNF reporter robust z-score":-0.04}
{"gene symbol":"KDELR1","TNF reporter robust z-score":-0.16}
